# Assay results from PubChem BioAssay AID504467 (National Center for Advancing Translational Sciences (NCATS), 2011).
# In all, about 330,000 compounds went through this assay and about 7,700 (2.3%) were called active. The inconclusive results got no clear call from the source; some entries with a clear call stand among them for comparison. The call rests on the fitted dose curve; in most records, active means well fitted inhibition curve with a large enough effect; inconclusive means small, poorly fitted or top-dose-only effect, or effect the other way; inactive means flat fitted curve, though single readings scatter. Potencies beside an inconclusive call are fits to weak or partial responses and may not hold up.
# Experiment: qHTS screen for small molecules that inhibit ELG1-dependent DNA repair in human embryonic kidney (HEK293T) cells expressing luciferase-tagged ELG1; further: nearly all actives have a fitted effect of over 55% in size
# Settings: HEK293T ELG1-luciferase reporter, luminescence, 16 h, DNA damage induced by 5-fluorouridine; series mostly up to 46.1 µM
# Text: NIH Molecular Libraries Probe Production Network [MLPCN] NIH Chemical Genomics Center [NCGC] MLPCN Grant: 1 R03 MH092164-01 Assay Provider: Kyungjae Myung, NHGRI, NIH Keywords: MLPCN, qHTS, NCGC, genotoxicity, cancer Assay Overview: Cancer cells divide rapidly compared to normal cells in the body. During cell division, cancer cells need to duplicate their genome by DNA replication. The failure of genome duplication leads to cancer cells' death. Therefore, inhibitors of DNA replication could specifically kill cancer cells. Based on this concept, many chemotherapeutic agents were developed and have been used to treat cancer patients. However, there are a limited number of agents available in the clinical setting, and some of those that do exist have low efficacy and severe side effects. Therefore, if we can find the compounds that effectively block DNA replication either by directly damaging DNA or by inhibiting other cellular mechanisms, the options for cancer treatment will be broadened. With this in mind, we developed a quantitative high-throughput ELG1-luciferase reporter gene assay. Small molecules that specifically block ELG1 function in response to DNA damage can be identified by monitoring the suppression of luciferase activity. Since ELG1 defines a pathway for repairing DNA damage, agents blocking ELG1 function can be used to sensitize cancer cells to chemotherapeutic agents whose mechanism of action involves the induction of DNA damage.
# Assay Protocol Summary: For genotoxicity screening, 2,000 cells in 4 uL/well were dispensed into white, solid-bottom 1536-well plates using a solenoid-based dispenser. Following transfer of 1 uL 5-Fluorouridine and 23 nL compound or DMSO vehicle by a pin tool, the plates were incubated 16 hr at 37 °C and 5% CO2. 5 ul ONE-Glo (Promega) was then added to each plate and following a 30 min incubation at room temperature, luciferase activity was quantified on a ViewLux CCD-based plate reader.
# Potency means the concentration at half of the fitted maximal effect.
row,SMILES,Potency
1,CCOC(=O)c1c(C)n(C)c2cc(CN(C)C)c(O)c(S(=O)(=O)c3ccccc3)c12,"inconclusive: 20.6 µM [activator, single point]"
2,COCCOC(=O)c1ccc(NC(=O)COc2ccc([N+](=O)[O-])cc2)cc1,"inconclusive: 23.1 µM [inhibitor, single point]"
3,CCOc1ccc(/C=N/NC(=O)Nc2ccccc2)cc1,"inconclusive: 6.51 µM [activator, partial curve]"
4,COc1ccccc1NC(=O)c1ccc2c(c1)OCO2,"inconclusive: 9.2 µM [activator, partial curve]"
5,CCOC(=O)COc1c(Cl)cc(C2NC(=S)NC(c3ccccc3)=C2C(C)=O)cc1OCC (centres undefined),"inconclusive: 20.6 µM [inhibitor, single point]"
6,Cc1ccc(NC(=O)CSC2=NCCN2)cc1,inactive
7,C/C(=C\c1ccc(C)o1)C(=O)c1c(C)cc(C)[nH]c1=O,inactive
8,CC(C)c1ccc(OCc2ccc(C(=O)O)o2)cc1,"inconclusive: 0.651 µM [activator, partial curve]"
9,C/C(=N\NC(=O)c1ccccc1O)c1cccc(NC(=O)c2ccccc2)c1,inactive
10,CCCCCn1nc(C)c(/C=N\NC(=O)c2cc(C)oc2C)c1C,"inconclusive: 29.1 µM [inhibitor, single point]"
11,FC(F)(F)c1cnc(-c2cnc(-c3cccnc3)nc2)c(Cl)c1,"inconclusive: 2.59 µM [activator, full curve]"
12,CC(C)n1c(SCC(N)=O)nc2c1c(=O)[nH]c(=O)n2C,"inconclusive: 23.1 µM [activator, partial curve, poor fit]"
13,CCn1c(CSc2nc3ccccc3s2)nc2ccccc21,inactive
14,COc1ccc(O[C@H]2C=C[C@@H](c3ccccc3)O[C@@H]2COC(=O)CC/C(C)=N/O[C@H](C)c2cn([C@@H]3COC[C@H]3O)nn2)cc1,active: 25.9 µM
15,O=C(CSc1nnnn1-c1cccc(Cl)c1)Nc1ccc2c(c1)CCC2,inactive
16,COc1cc(CCC(=O)Nc2cc(C)cc(C)c2)cc(OC)c1OC,"inconclusive: 32.6 µM [inhibitor, single point]"
17,O=C(Cc1ccccc1)Nc1ccccc1Sc1ccccc1,inactive
18,Cc1ccc2nc(-c3cccc(S(=O)(=O)N(C)C)c3)cn2c1,"inconclusive: 14.6 µM [activator, partial curve]"
19,COc1ccc(/C=C2\Cc3ccccc3C2=O)cc1OC,"inconclusive: 16.4 µM [activator, partial curve]"
20,Fc1ccccc1-c1nc2ncccc2o1,"inconclusive: 16.4 µM [activator, single point]"
21,COc1cc(OC)cc(C(=O)Nc2ccc3nc4n(c(=O)c3c2)CCCCC4)c1,"inconclusive: 9.2 µM [activator, partial curve]"
22,Fc1cccc(/C=N/Nc2nc3ccccc3[nH]2)c1,"inconclusive: 16.4 µM [activator, partial curve, poor fit]"
23,COc1cccc(/C=N/NC(=O)CN(CCc2ccccc2)S(=O)(=O)c2ccc(NC(C)=O)cc2)c1,active: 23.1 µM

# A second format for part of the listing above.
row | SMILES | Potency
15 | O=C(CSc1nnnn1-c1cccc(Cl)c1)Nc1ccc2c(c1)CCC2 | inactive
23 | COc1cccc(/C=N/NC(=O)CN(CCc2ccccc2)S(=O)(=O)c2ccc(NC(C)=O)cc2)c1 | active: 23.1 µM

# More results follow:

row,SMILES,Potency
1,Fc1ccccc1COc1ccc(Br)cc1CNCC1CCCO1 (centres undefined),inactive
2,Cc1cc(N)n(-c2ccc(C(=O)O)cc2)n1,"inconclusive: 18.3 µM [activator, partial curve]"
3,CCOc1cc(C(=S)N2CCOCC2)ccc1OS(=O)(=O)c1ccc(Br)cc1,"inconclusive: 29.1 µM [inhibitor, single point]"
4,COC(=O)C1=C(C)N(Cc2cccnc2)C(=O)/C1=C\c1sccc1C,active: 20.6 µM
5,O=C(Nc1ccc(Cl)cc1)NC1CCCCC1Cc1ccco1 (centres undefined),inactive
6,O=C1CCc2cc(NS(=O)(=O)c3ccccc3)cc3c2N1CCC3,"inconclusive: 25.9 µM [activator, single point]"
7,Cc1ccc(NC(=O)C2CCN(c3ncnc4c3nc3n4CCCCC3)CC2)cc1Cl,active: 2.31 µM
8,O=C(CN1CCCCC1CO)c1ccc(OC(F)F)cc1 (centres undefined),inactive
9,CCOC(=O)[C@@H]1[C@H]2COc3cc(OC)ccc3[C@@H]2N2C(=O)N(c3ccc(Br)cc3)C(=O)[C@@]12C,inactive
10,Cc1ccc(NNC(=O)c2c(C)noc2C)cc1Cl,inactive
11,O=C(CCCOc1ccccc1)Nc1ccc2c(c1)OCCO2,"inconclusive: 16.4 µM [activator, single point]"
12,Cc1ccc(C(=O)NCCc2ccc(S(N)(=O)=O)cc2)cc1[N+](=O)[O-],"inconclusive: 16.4 µM [inhibitor, single point]"
13,Cc1[nH]n(-c2ccccc2)c(=O)c1C=Nc1ccc(S(=O)(=O)N=C(N)N)cc1,"inconclusive: 32.6 µM [activator, partial curve, poor fit]"
14,Cc1cc(N2CCOCC2)ccc1/C=C1/SC(=O)NC1=O,"inconclusive: 14.6 µM [activator, partial curve]"
15,Cc1ccc(C(=O)Nc2ccc(Cl)cn2)cc1S(=O)(=O)N1CCOCC1,"inconclusive: 20.6 µM [inhibitor, single point]"
16,COc1ccc(C(=O)OCc2ccc(C)cc2)cc1S(=O)(=O)N1CCOCC1,"inconclusive: 23.1 µM [inhibitor, single point]"
17,O=C(Nc1ccccc1C(=O)N1CCN(c2cccc(Cl)c2)CC1)C1=CSCCO1,"inconclusive: 23.1 µM [inhibitor, single point]"
18,CCCCNC(=O)COC(=O)c1cc(S(=O)(=O)N2CCCCCC2)ccc1OC,"inconclusive: 29.1 µM [inhibitor, single point]"
19,COc1ccc(CNC(=O)CCCn2nc(C)c3c(C)n(-c4ccc(C)cc4)nc3c2=O)cc1,"inconclusive: 32.6 µM [inhibitor, partial curve, poor fit]"
20,CC(C)n1ncc(N2CCOCC2)c(Cl)c1=O,inactive
21,Cc1cccc(NC(=O)c2nc[nH]c2C(=O)NCCCNC(=O)c2[nH]cnc2C(=O)Nc2cccc(C)c2)c1,active: 9.2 µM
22,COc1ccc(C2=NS(=O)(=O)N(C)C(C(=O)N(C)Cc3ccccc3)=C2)cc1OC,"inconclusive: 32.6 µM [inhibitor, single point]"
23,COc1cccc(/C=C2\SC(=S)N(CCC(=O)NNC(=O)c3ccccc3OC)C2=O)c1,inactive

row,SMILES,Potency
1,Cc1cc(=O)n2[nH]c(C)c(-c3ccc(Cl)cc3)c2n1,"inconclusive: 35.5 µM [inhibitor, single point]"
2,Cc1ccc(S(=O)(=O)N2CCCCC2)cc1C(=O)N(C)CC(=O)Nc1ccc(Cl)c(C(F)(F)F)c1,"inconclusive: 18.3 µM [inhibitor, single point]"
3,COc1ccc(-n2c(SCC(=O)NCc3ccco3)nnc2-c2c[nH]c3ccccc23)cc1,"inconclusive: 20.6 µM [inhibitor, single point]"
4,O=S(=O)(N1CCCCC1)N1CCN(CC(O)COc2ccc3cc(Br)ccc3c2)CC1 (centres undefined),active: 13 µM
5,O=C(Nc1ccc(Cl)cc1)C1CCCN(S(=O)(=O)c2cnc[nH]2)C1 (centres undefined),"inconclusive: 11.6 µM [inhibitor, partial curve, poor fit]"
6,CCOc1ccc(/C=N/NC(=O)C(OC)c2ccccc2)cc1 (centres undefined),inactive
7,Cc1ccnc(NC(=O)c2ccc3c(c2)OCO3)c1,"inconclusive: 1.83 µM [activator, full curve]"
8,CC(c1ccccc1)N1C(=O)c2ccc(C(=O)NCc3ccco3)cc2C1=O (centres undefined),inactive
9,Cc1ccc2[nH]cc(/C=C/c3cc[n+](C)cc3)c2c1,"inconclusive: 3.66 µM [inhibitor, partial curve, poor fit]"
10,Cc1cc(C)c(S(=O)(=O)NCc2nc3nc(C)cc(C)n3n2)c(C)c1,"inconclusive: 23.1 µM [activator, partial curve, poor fit]"
11,CC1=C(C(=O)Nc2ccccc2C(=O)NC2CCCCC2C)SCCO1 (centres undefined),inactive
12,CC(C)C[C@H](NC(=O)CCCn1nnc2ccccc2c1=O)C(=O)O,"inconclusive: 18.3 µM [activator, partial curve, poor fit]"
13,CS(=O)(=O)Nc1cccc(-c2cnc3ccccc3n2)c1,"inconclusive: 8.2 µM [activator, partial curve]"
14,O=C(Nc1ccc2c(c1)OCCO2)c1ccoc1,"inconclusive: 20.6 µM [activator, partial curve]"
15,COc1cccc(/C=N/n2c(COc3ccccc3)n[nH]c2=S)c1,inactive
16,C=C[C@@H]1c2cc(C)ccc2N(S(=O)(=O)c2ccc(C)cc2)[C@H](c2ccccc2)C1(C#N)S(=O)(=O)c1ccccc1 (some centres undefined),"inconclusive: 0.206 µM [inhibitor, single point]"
17,Cc1ccc(C(=O)N/C(=C\c2ccc(Br)cc2)c2nc(=S)[nH][nH]2)cc1,"inconclusive: 20.6 µM [inhibitor, single point]"
18,O=C(Nc1ccc([N+](=O)[O-])cc1)N1CCCCCC1,"inconclusive: 23.1 µM [activator, partial curve]"
19,CC(=O)C(=Cc1cn(-c2ccccc2)nc1-c1ccccc1)C(C)=O,inactive
20,COc1ccc(OC)c(S(=O)(=O)N2CCC(C(=O)NCc3ccccc3OC)CC2)c1,"inconclusive: 11.6 µM [inhibitor, partial curve, poor fit]"
21,CCOC(=O)c1c(C)n(C)c2ccc(OC)c(NC(=O)CN3CCC(C(=O)OCC)CC3)c12,"inconclusive: 14.6 µM [inhibitor, partial curve]"
22,C/C=C\C(=O)Nc1cccc(C2=NOC3(C2)C[C@@H](C(N)=O)N(C(=O)C2(C)CC2)C3)c1 (some centres undefined),inactive
23,O=C(NCCCN1CCCC1)c1ccc2c(c1)N(Cc1ccccc1F)C(=O)c1ccccc1S2=O (centres undefined),"inconclusive: 20.6 µM [activator, single point]"

# Compounds listed so far that have a furan ring, fused or not:
row,SMILES,Potency
7,C/C(=C\c1ccc(C)o1)C(=O)c1c(C)cc(C)[nH]c1=O,inactive
8,CC(C)c1ccc(OCc2ccc(C(=O)O)o2)cc1,"inconclusive: 0.651 µM [activator, partial curve]"
10,CCCCCn1nc(C)c(/C=N\NC(=O)c2cc(C)oc2C)c1C,"inconclusive: 29.1 µM [inhibitor, single point]"
5,O=C(Nc1ccc(Cl)cc1)NC1CCCCC1Cc1ccco1 (centres undefined),inactive
3,COc1ccc(-n2c(SCC(=O)NCc3ccco3)nnc2-c2c[nH]c3ccccc23)cc1,"inconclusive: 20.6 µM [inhibitor, single point]"
8,CC(c1ccccc1)N1C(=O)c2ccc(C(=O)NCc3ccco3)cc2C1=O (centres undefined),inactive
14,O=C(Nc1ccc2c(c1)OCCO2)c1ccoc1,"inconclusive: 20.6 µM [activator, partial curve]"
